Binding data for 1 molecule are collected here from article PMC11011687.

The target of this experiment is GFP-fused A1CF (Apobec-1 complementation factor) (human). Put plainly: affinity purification with mass spectrometry; HEK293T cells overexpressing GFP-fused A1CF or GFP, extracts 48 h after transfection mixed with anti-GFP antibodies; immunoprecipitate separated by SDS-PAGE and identified by mass spectrometry.

No constants are given. Whether binding was seen depends on the method and setting. Binding seen in cells or lysates may run through a third protein. Here binding means that the protein was enriched with, or labelled near, the bait; the list need not be complete.

B1: NF-κB-repressing factor (NKRF), endogenous in HEK293T (protein, UniProt O15226 1-690)
chain: MEKILQMAEGIDIGEMPSYDLVLSKPSKGQKRHLSTCDGQNPPKKQAGSKFHARPRFEPVHFVASSSKDERQEDPYGPQTKEVNEQTHFASMPRDIYQDYTQDSFSIQDGNSQYCDSSGFILTKDQPVTANMYFDSGNPAPSTTSQQANSQSTPEPSPSQTFPESVVAEKQYFIEKLTATIWKNLSNPEMTSGSDKINYTYMLTRCIQACKTNPEYIYAPLKEIPPADIPKNKKLLTDGYACEVRCQNIYLTTGYAGSKNGSRDRATELAVKLLQKRIEVRVVRRKFKHTFGEDLVVCQIGMSSYEFPPALKPPEDLVVLGKDASGQPIFNASAKHWTNFVITENANDAIGILNNSASFNKMSIEYKYEMMPNRTWRCRVFLQDHCLAEGYGTKKTSKHAAADEALKILQKTQPTYPSVKSSQCHTGSSPRGSGKKKDIKDLVVYENSSNPVCTLNDTAQFNRMTVEYVYERMTGLRWKCKVILESEVIAEAVGVKKTVKYEAAGEAVKTLKKTQPTVINNLKKGAVEDVISRNEIQGRSAEEAYKQQIKEDNIGNQLLRKMGWTGGGLGKSGEGIREPISVKEQHKREGLGLDVERVNKIAKRDIEQIIRNYARSESHTDLTFSRELTNDERKQIHQIAQKYGLKSKSHGVGHDRYLVVGRKRRKEDLLDQLKQEGQVGHYELVMPQAN
B1: the binding result is “binds”.
